Experimental data as given in PubChem BioAssay AID493014 (National Center for Advancing Translational Sciences (NCATS), 2011).
In all, about 340,000 compounds went through this assay and about 170 (0.05%) were called active. Inconclusive results, whose numbers are uncertain, are shown with a selection of clear calls. Calls follow the shape of the dose curve; as a rule, active = well fitted inhibition curve with a large enough effect in the signal ratio, with a control signal flat (not every such curve was filed as active); inconclusive = small, poorly fitted or top-dose-only effect, or effect the other way, or a change in a side signal; inactive = flat fitted curve, though single readings scatter; the % refers to the signal ratio. A potency beside an inconclusive call is a rough fit, not a confirmed value.

Experiment: qHTS Assay to Find Inhibitors of Chronic Active B-Cell Receptor Signaling;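 as to activity change, negative = inhibition: plate controls were basal doxycycline-induced cells for no effect and cells given 10 µM MG132 for full effect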
Settings: ABC-DLBCL IkBa-CBG/CBR reporter, luminescence ratio (green luciferase fused to IkBa over red control in TMD8 lymphoma cells), 4 h; activity change, negative = inhibition: at 46.1 µM (top of the series)
Outline: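 Cell line TMD8 (human ABC DLBCL), stably expressing tet-inducible CBG68-IkBa fusion and CBR; IMDM/0.5% FBS; cpd up to 46 uM; dox induction, 4 h, 37C/5% CO2; dual luminescence; green/red ratio; MG132 control.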
Potency is read from the fitted curve at half-maximal effect.

| Structure (SMILES) | activity change, negative = inhibition | Potency |
| --- | --- | --- |
| NC(=O)NOCc1cccc(Cl)c1 | inconclusive: 0.368% |  |
| CCOC(=O)C1=C(C)N=c2s/c(=C/c3ccc(OCC(=O)O)cc3)c(=O)n2C1c1ccc(F)cc1 (stereo not drawn) |  | inconclusive: 17.8 µM [rising, partial curve, poor fit] |
| O=C(NC1CCCCC1)c1n[nH]c2c1CC(c1ccccc1)CC2 (stereo not drawn) |  | inconclusive: 1.3 µM [falling, partial curve, poor fit] |
| CCOc1ccccc1-n1c(CNc2ccc(F)cc2)nnc1SCC(=O)NCc1ccco1 |  | inconclusive: 7.31 µM [falling, partial curve] |
| O=C(NCCc1ccc(F)cc1)Nc1ccccc1 |  | inconclusive: 22.4 µM [falling, single point] |
| CC1CCN(c2nc3ccc(C(=O)NCCCN4CCCCC4C)cc3s2)CC1 (stereo not drawn) |  | inconclusive: 1.41 µM [falling, partial curve] |
| Cc1cccc(C)c1OCCCn1ccnc1 | inactive |  |
| COc1ccc(NC(=O)Nc2ccc(OC)cc2)cc1 | inconclusive: 19.5% |  |
| O=C(Nc1nc(N2C(=O)c3ccccc3C2=O)n(-c2ccccc2)n1)c1ccc(F)cc1 | inconclusive: -20.6% |  |
| CC(/C=C/c1ccc2c(c1)OCO2)=N/NC(=O)COc1ccc(C)cc1 | inconclusive: -3.85% |  |
| Cc1ccc(NC(=O)c2cccc(C(F)(F)F)c2)cc1NC(=O)c1[nH]cnc1C(N)=O | inactive |  |
| CCOC(=O)c1c(NC(=O)CS(=O)(=O)c2ccc(C)cc2)sc2c1CCC(C)C2 (stereo not drawn) |  | inconclusive: 11.2 µM [rising, single point] |
| O=C(CCCn1c(SCC(=O)c2ccc(O)c(O)c2)nc2ccccc2c1=O)NCC1CCCO1 (stereo not drawn) | inconclusive: -3.9% |  |
| COCC(C)n1c(SCc2nc3ccccc3c(=O)[nH]2)nc2ccccc2c1=O (stereo not drawn) | inactive |  |
| CCCOc1cccc(C(=O)Nc2cccnc2)c1 | inactive |  |
| COc1cc2c(cc1OC)CN(S(=O)(=O)c1ccc(Cl)nc1)CC2 | inconclusive: 4.24% |  |
| O=C(CSC1CC(=O)N(CCc2ccccc2)C1=O)Nc1ccc(Cl)cc1 (stereo not drawn) | inconclusive: -9.93% |  |
| Cc1ccc(OCC(=O)Nc2ccc(S(=O)(=O)Nc3onc(C)c3C)cc2)cc1 | inactive |  |
| Cc1cccc(NC(=O)CSc2nnc(-c3n[nH]c4ccccc34)o2)c1 | inconclusive: -5.46% |  |
| COc1ccc(S(=O)(=O)N2CCCCC2)cc1NC(=O)CNc1ccccc1C(C)=O | inconclusive: -15.3% |  |
| Cc1ccc(-c2n[nH]c(=S)n2Cc2ccccc2)cc1 | inactive |  |

| Structure (SMILES) | activity change, negative = inhibition | Potency |
| --- | --- | --- |
| CN(N)C(=S)Nc1ccc(Cl)cc1 | inconclusive: 8.99% |  |
| O=C(N/N=C/c1ccc2c(c1)OCO2)c1ccc2c(c1)OCCO2 |  | inconclusive: 23.1 µM [falling, single point] |
| COc1cc2[nH]c3c(=O)n(CCN4CCCCC4)cnc3c2cc1OC | inactive |  |
| Cn1c(C2CCCN2C(=O)OC(C)(C)C)n[nH]c1=S (stereo not drawn) | inactive |  |
| Cc1cccc(Nc2ncnc3ccc(Br)cc23)c1 | inconclusive: -16.7% |  |
| O=C(NC1CCCCC1)N(Cc1nc2ccccc2c(=O)[nH]1)C1CCCC1 | inactive |  |
| CC1=NN(C(N)=S)C(=O)C1N=Nc1ccccc1O (stereo not drawn) | inactive |  |
| COc1cc2ccccc2cc1C(=O)N1CCN(c2nc3c(C)cc(C)cc3s2)CC1 | inactive |  |
| CCOc1cc(N2CCOCC2)c(OCC)cc1NC(=O)c1cccc(N(C)C)c1 | inconclusive: 3.78% |  |
| CC(C)(C)C(=O)Nc1ccccc1N1CCN(C(=O)c2ccc(Cl)cc2)CC1 | inconclusive: -14.6% |  |
| O=C1OC(N2C(=O)CC[C@H]2C(=O)Nc2ccc3c(c2)OCO3)c2ccccc21 (stereo partly drawn) | inactive |  |
| O=C1C(Cc2ccc(O)cc2)NC(=S)N1c1ccccc1 (stereo not drawn) | inconclusive: -10.1% |  |
| O=C(O)c1nn(-c2cccc(Cl)c2)c(=O)cc1O | inconclusive: -3.74% |  |
| CCCNc1c(NS(=O)(=O)c2ccc(C)cc2C)c(=O)oc2ccccc12 |  | inconclusive: 6.31 µM [falling, partial curve, poor fit] |
| O=C1Nc2ccc(Br)cc2C1=Nc1cccnc1 |  | inconclusive: 15.8 µM [falling, single point] |
| CN1C/C(=C/c2cccnc2)C(=O)/C(=C/c2cccnc2)C1 |  | inconclusive: 0.58 µM [falling, partial curve, poor fit] |
| Cc1cc(C)c2c(N)c(C(=O)NCC3CCCCC3)sc2n1 | inconclusive: -5.19% |  |
| O=C(Nc1ccccc1N1CCCC1)c1ccc([N+](=O)[O-])o1 | inactive |  |
| O=C(/C(C=Nc1ccc(Br)cc1)=C(/O)c1ccco1)C(F)(F)F |  | inconclusive: 29.1 µM [falling, single point] |
| CC(C)CCNC(=O)c1ccc(C2SCC(=O)N2Cc2ccco2)cc1 (stereo not drawn) | inconclusive: 4.72% |  |
| Cc1[nH]c2ccccc2c1C(c1ccncc1)N1CCCCC1 (stereo not drawn) | inactive |  |

| Structure (SMILES) | activity change, negative = inhibition | Potency |
| --- | --- | --- |
| Cc1ccc(C(=O)c2coc3cc([N+](=O)[O-])c(O)c([N+](=O)[O-])c23)cc1 |  | inconclusive: 6.51 µM [rising, partial curve] |
| CCCCN(CC)S(=O)(=O)c1ccc2c(c1)CCCN2C(C)=O | inactive |  |
| CCOC(=O)CSC1=C(C#N)C(c2ccco2)C(C(=O)Nc2cccc(C(F)(F)F)c2)=C(C)N1 (stereo not drawn) | inconclusive: -0.542% |  |
| COc1ccc(CNc2nc(S(=O)(=O)c3ccccc3)c(Cl)s2)cc1OC |  | inconclusive: 7.31 µM [falling, partial curve, poor fit] |
| O=C1c2cccc3c(N4CCCCC4)ccc(c23)C(=O)N1c1cccc(O)c1 | inactive |  |
| C=CCN=C1S/C(=C\c2ccc(Cl)cc2)C(=O)N1CC=C | inconclusive: 10.8% |  |
| S=c1nc[nH]c2c1cnn2-c1ccccc1 |  | inconclusive: 35.5 µM [falling, single point] |
| CC(=O)N1c2ccc(S(=O)(=O)NCC3CCC(C(=O)N4CCCC(C)C4)CC3)cc2CC1C (stereo not drawn) | inconclusive: 0.213% |  |
| Cn1c(CCNC(=O)c2ccccc2)nc2cc(NC(=O)C3CCCCC3)ccc21 | inconclusive: 4.04% |  |
| COc1ccc2[nH]c(=O)c(CN(CCO)C(=O)c3ccccc3F)cc2c1 | inactive |  |
| O=C(Nc1ccc([N+](=O)[O-])cc1)c1cc(Cl)sc1Cl | inactive |  |
| COc1ccc(C(=O)Nc2ccccc2C(N)=O)cc1 |  | inconclusive: 20.6 µM [falling, single point] |
| Cc1oc(-c2ccccc2F)nc1CS(=O)(=O)CC(=O)N1CCOCC1 | inconclusive: 8% |  |
| O=C(Nc1ncc(Cc2ccc(Cl)cc2Cl)s1)c1ccc([N+](=O)[O-])cc1 | inactive |  |
| Cc1nc(NC(=O)C2CC2)sc1C(=O)N1CCCCC1 | inactive |  |
| O=C(Nc1ccccc1N1CCN(C(=O)c2ccccc2)CC1)c1ccc2c(c1)OCO2 | inconclusive: 6.2% |  |
| COc1ccc(OC)c(S(=O)(=O)Nc2ccc(-c3ccc4nnc(C)n4n3)cc2)c1 | inconclusive: 0.97% |  |
| Cc1ccc2c(C)nc(Nc3nc(CSc4nnc(C)s4)cc(=O)[nH]3)nc2c1 | inconclusive: -18.4% |  |
| O=[N+]([O-])c1ccc(N=NNc2ccccc2)cc1 | inconclusive: 1.46% |  |
| CCCN1C(=O)C(O)(CC(=O)c2ccc(CC)cc2)c2cc(Br)ccc21 (stereo not drawn) | inconclusive: -24.3% |  |
| CC1CC1c1ccc(/C=C(\C#N)C(=O)Nc2cccc(Cl)c2Cl)o1 (stereo not drawn) |  | inconclusive: 4.11 µM [falling, partial curve] |

| Structure (SMILES) | activity change, negative = inhibition | Potency |
| --- | --- | --- |
| COc1ccccc1-c1sc2ccccc2c1-c1ccc2c(c1)OCO2 |  | inconclusive: 14.1 µM [rising, single point] |
| Oc1ccc(/C=N/N(c2ccccc2)c2ccccc2)c(O)c1O | inactive |  |
| CC(C)C(=O)NC(C)C(c1cccs1)N1CCN(c2ccccc2)CC1 (stereo not drawn) | inactive |  |
| C=CCn1c(SCC(=O)N2CCOCC2)nc2scc(-c3ccco3)c2c1=O | inactive |  |
| CCn1nnc(NC(=S)NC(=O)c2ccc(-c3cccc(Cl)c3)o2)n1 |  | inconclusive: 3.16 µM [falling, single point] |
| CN(C)c1ccc(-c2ccc3c(=O)c4ccccc4n(C)c3c2)cn1 |  | inconclusive: 1 µM [rising, full curve, poor fit] |
| CSc1nc(-c2ccco2)cc(-c2ccccc2)c1C#N | inactive |  |
| Cc1cc(C)cc(NS(=O)(=O)c2c(C)[nH]c(=O)[nH]c2=O)c1 | inactive |  |
| O=C(NC(=O)N1CCN(c2cccc(Cl)c2)CC1)c1ccc(Cl)cc1 | inconclusive: -13% |  |
| CS(=O)(=O)N(CC(=O)Nc1ccccc1Sc1ccccc1)c1cccc(Br)c1 |  | inconclusive: 3.66 µM [rising, full curve] |
| Cc1ccc(C2=N/C(=C\c3ccc(F)cc3)C(=O)N2)cc1 | inconclusive: 9.27% |  |
| O=C1NC2(CCCCC2)N=C1c1ccc(Br)cc1 |  | inconclusive: 29.1 µM [falling, single point] |
| CC1=NN(c2ccc(Cl)cc2)C(=O)C1C(c1cccc(O)c1)c1c(C)[nH]n(-c2ccc(Cl)cc2)c1=O (stereo not drawn) | inconclusive: -3.71% |  |
| Cc1cc2c(cc1C)NC(CC(=O)NCc1ccccc1)C(=O)N2 (stereo not drawn) | inactive |  |
| Cc1ccc(S(=O)(=O)/C(C#N)=C/c2c(N3CCC(C(N)=O)CC3)nc3c(C)cccn3c2=O)cc1 |  | inconclusive: 2.31 µM [rising, full curve, poor fit] |
| Cc1ccsc1/C=N/NC(=O)CC(=O)NCC(C)C | inconclusive: 8.9% |  |
| CCC(C)NC(=O)Cc1c(C)c2cc3c(cc2oc1=O)OC(C)(C)CC3 (stereo not drawn) | inactive |  |
| C=CCOc1c(Br)cc(/C=C2/C(=O)ON=C2C)cc1OC | inactive |  |
| CC(C)Oc1ccc(C(=O)Nc2nc3ccccc3[nH]2)cc1 | inconclusive: -0.25% |  |
| CSc1ccc(CCNC(=O)c2cc(-c3ccccc3)c(N3CCOCC3)s2)cc1 | inconclusive: 5.4% |  |

Single values from the list.
Under activity change, negative = inhibition, `Cc1cc(C)cc(NS(=O)(=O)c2c(C)[nH]c(=O)[nH]c2=O)c1` is entered as inactive
Under activity change, negative = inhibition, `Cc1ccc(C2=N/C(=C\c3ccc(F)cc3)C(=O)N2)cc1` is entered as inconclusive: 9.27%
Under Potency, `CCn1nnc(NC(=S)NC(=O)c2ccc(-c3cccc(Cl)c3)o2)n1` is entered as inconclusive: 3.16 µM [falling, single point]
Under activity change, negative = inhibition, `Cc1ccsc1/C=N/NC(=O)CC(=O)NCC(C)C` is entered as inconclusive: 8.9%
